From the supplement of paper PMC8612539
In brackets after ≈: the same amount, converted by molar mass. This continues a long series; more values of the same kind are listed elsewhere.

Test system: Escherichia coli
Test: minimum inhibitory concentration (MIC)
Procedure: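 Broth microdilution MIC (Sensititre BOPO7F bovine plate, CLSI methods) of 19 antimicrobials against field isolates of P. multocida, M. haemolytica, H. somni (deep nasopharyngeal swabs) and E. coli, Enterococcus spp. (rectal swabs) from weaned dairy heifers. Incubation 16-24 h at 35 C. MIC is the lowest concentration preventing visible growth. Values with <= or > lie at the tested range limits. Trimethoprim-sulfamethoxazole is given as the trimethoprim component of a 1:19 mixture.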

CCCNC[C@]1(O)[C@H](C)O[C@@H](O[C@H]2[C@H](C)[C@@H](O[C@@H]3O[C@H](C)C[C@H](N(C)C)[C@H]3O)[C@](C)(O)C[C@@H](C)CN[C@H](C)[C@@H](O)[C@](C)(O)[C@@H](CC)OC(=O)[C@@H]2C)C[C@@]1(C)OC [Tulathromycin]
Settings | minimum inhibitory concentration [µg/mL]
isolate (source animal id): 1 | ≤ 8
isolate (source animal id): 2 | ≤ 8
isolate (source animal id): 3 | ≤ 8
isolate (source animal id): 4 | ≤ 8
isolate (source animal id): 5 | ≤ 8
isolate (source animal id): 6 | ≤ 8
isolate (source animal id): 7 | ≤ 8
isolate (source animal id): 17 | ≤ 8
isolate (source animal id): 18 | ≤ 8
isolate (source animal id): 19 | ≤ 8
isolate (source animal id): 20 | ≤ 8
isolate (source animal id): 21 | 16 (≈ 19.8 µM)
isolate (source animal id): 22 | ≤ 8
isolate (source animal id): 23 | 16 (≈ 19.8 µM)
isolate (source animal id): 24 | 16 (≈ 19.8 µM)
isolate (source animal id): 25 | ≤ 8
isolate (source animal id): 26 | ≤ 8
isolate (source animal id): 27 | ≤ 8
isolate (source animal id): 28 | ≤ 8
isolate (source animal id): 29 | ≤ 8
isolate (source animal id): 30 | ≤ 8
isolate (source animal id): 31 | ≤ 8
isolate (source animal id): 32 | ≤ 8
isolate (source animal id): 33 | ≤ 8
isolate (source animal id): 34 | ≤ 8
isolate (source animal id): 35 | ≤ 8
isolate (source animal id): 36 | ≤ 8
isolate (source animal id): 37 | ≤ 8
isolate (source animal id): 38 | 16 (≈ 19.8 µM)
isolate (source animal id): 39 | ≤ 8
isolate (source animal id): 40 | ≤ 8
isolate (source animal id): 41 | ≤ 8
isolate (source animal id): 42 | ≤ 8
isolate (source animal id): 43 | ≤ 8
isolate (source animal id): 44 | ≤ 8
isolate (source animal id): 45 | ≤ 8
isolate (source animal id): 46 | ≤ 8
isolate (source animal id): 47 | ≤ 8
isolate (source animal id): 48 | ≤ 8
isolate (source animal id): 49 | ≤ 8
isolate (source animal id): 50 | ≤ 8
isolate (source animal id): 51 | ≤ 8
isolate (source animal id): 52 | ≤ 8
isolate (source animal id): 53 | ≤ 8
isolate (source animal id): 54 | ≤ 8
isolate (source animal id): 55 | ≤ 8
isolate (source animal id): 56 | 16 (≈ 19.8 µM)
isolate (source animal id): 57 | ≤ 8
isolate (source animal id): 58 | 16 (≈ 19.8 µM)
isolate (source animal id): 59 | ≤ 8
isolate (source animal id): 60 | ≤ 8
isolate (source animal id): 61 | ≤ 8
isolate (source animal id): 62 | 16 (≈ 19.8 µM)
isolate (source animal id): 63 | 16 (≈ 19.8 µM)
isolate (source animal id): 64 | 16 (≈ 19.8 µM)
isolate (source animal id): 65 | 16 (≈ 19.8 µM)
isolate (source animal id): 66 | 16 (≈ 19.8 µM)
isolate (source animal id): 67 | ≤ 8
isolate (source animal id): 68 | ≤ 8
isolate (source animal id): 69 | 16 (≈ 19.8 µM)
isolate (source animal id): 70 | 16 (≈ 19.8 µM)
isolate (source animal id): 71 | 16 (≈ 19.8 µM)
isolate (source animal id): 72 | ≤ 8
isolate (source animal id): 73 | 16 (≈ 19.8 µM)
isolate (source animal id): 74 | ≤ 8
isolate (source animal id): 75 | ≤ 8
isolate (source animal id): 76 | ≤ 8
isolate (source animal id): 77 | ≤ 8
isolate (source animal id): 78 | ≤ 8
isolate (source animal id): 79 | ≤ 8
isolate (source animal id): 80 | ≤ 8
isolate (source animal id): 81 | ≤ 8
isolate (source animal id): 82 | ≤ 8
isolate (source animal id): 83 | ≤ 8
isolate (source animal id): 84 | ≤ 8
isolate (source animal id): 85 | ≤ 8
isolate (source animal id): 86 | 16 (≈ 19.8 µM)
isolate (source animal id): 87 | ≤ 8
isolate (source animal id): 88 | ≤ 8
isolate (source animal id): 89 | ≤ 8
isolate (source animal id): 90 | 16 (≈ 19.8 µM)
isolate (source animal id): 91 | ≤ 8
isolate (source animal id): 92 | ≤ 8
isolate (source animal id): 93 | ≤ 8
isolate (source animal id): 94 | 16 (≈ 19.8 µM)
isolate (source animal id): 95 | ≤ 8
isolate (source animal id): 96 | ≤ 8
isolate (source animal id): 97 | ≤ 8
isolate (source animal id): 189 | ≤ 8
isolate (source animal id): 190 | ≤ 8
isolate (source animal id): 191 | ≤ 8
isolate (source animal id): 192 | ≤ 8
isolate (source animal id): 193 | ≤ 8
isolate (source animal id): 194 | ≤ 8
isolate (source animal id): 195 | ≤ 8
isolate (source animal id): 196 | ≤ 8
isolate (source animal id): 197 | 16 (≈ 19.8 µM)
isolate (source animal id): 198 | ≤ 8
isolate (source animal id): 199 | ≤ 8
isolate (source animal id): 200 | ≤ 8
isolate (source animal id): 201 | ≤ 8
isolate (source animal id): 202 | ≤ 8
isolate (source animal id): 203 | 16 (≈ 19.8 µM)
isolate (source animal id): 204 | ≤ 8
isolate (source animal id): 205 | 16 (≈ 19.8 µM)
isolate (source animal id): 206 | ≤ 8
isolate (source animal id): 207 | ≤ 8
isolate (source animal id): 208 | ≤ 8
isolate (source animal id): 209 | 16 (≈ 19.8 µM)
isolate (source animal id): 210 | ≤ 8
isolate (source animal id): 211 | ≤ 8
isolate (source animal id): 212 | ≤ 8
isolate (source animal id): 213 | 16 (≈ 19.8 µM)
isolate (source animal id): 214 | ≤ 8
isolate (source animal id): 215 | ≤ 8
isolate (source animal id): 216 | ≤ 8
isolate (source animal id): 217 | ≤ 8
isolate (source animal id): 218 | ≤ 8
isolate (source animal id): 219 | ≤ 8
isolate (source animal id): 220 | ≤ 8
isolate (source animal id): 221 | 16 (≈ 19.8 µM)
isolate (source animal id): 222 | ≤ 8
isolate (source animal id): 223 | ≤ 8
isolate (source animal id): 224 | 16 (≈ 19.8 µM)
isolate (source animal id): 225 | ≤ 8
isolate (source animal id): 226 | ≤ 8
isolate (source animal id): 227 | ≤ 8
isolate (source animal id): 228 | ≤ 8
isolate (source animal id): 229 | 16 (≈ 19.8 µM)
isolate (source animal id): 230 | ≤ 8
isolate (source animal id): 231 | ≤ 8
isolate (source animal id): 232 | 16 (≈ 19.8 µM)
isolate (source animal id): 233 | ≤ 8
isolate (source animal id): 234 | 16 (≈ 19.8 µM)
isolate (source animal id): 235 | ≤ 8
isolate (source animal id): 236 | 16 (≈ 19.8 µM)
isolate (source animal id): 237 | ≤ 8
isolate (source animal id): 238 | ≤ 8
isolate (source animal id): 239 | ≤ 8
isolate (source animal id): 240 | ≤ 8
isolate (source animal id): 241 | ≤ 8
isolate (source animal id): 242 | ≤ 8
isolate (source animal id): 243 | ≤ 8
isolate (source animal id): 244 | 16 (≈ 19.8 µM)
isolate (source animal id): 245 | ≤ 8
isolate (source animal id): 246 | ≤ 8
isolate (source animal id): 247 | ≤ 8
isolate (source animal id): 248 | ≤ 8
isolate (source animal id): 249 | ≤ 8
isolate (source animal id): 250 | ≤ 8
isolate (source animal id): 251 | ≤ 8
isolate (source animal id): 252 | 16 (≈ 19.8 µM)
isolate (source animal id): 253 | ≤ 8
isolate (source animal id): 254 | ≤ 8
isolate (source animal id): 255 | ≤ 8
isolate (source animal id): 256 | ≤ 8
isolate (source animal id): 257 | ≤ 8
isolate (source animal id): 258 | 16 (≈ 19.8 µM)
isolate (source animal id): 259 | ≤ 8
isolate (source animal id): 260 | ≤ 8
isolate (source animal id): 261 | 16 (≈ 19.8 µM)
isolate (source animal id): 262 | ≤ 8
isolate (source animal id): 263 | 16 (≈ 19.8 µM)
isolate (source animal id): 264 | 16 (≈ 19.8 µM)
isolate (source animal id): 265 | ≤ 8
isolate (source animal id): 266 | ≤ 8
isolate (source animal id): 267 | ≤ 8
isolate (source animal id): 268 | ≤ 8
isolate (source animal id): 269 | 16 (≈ 19.8 µM)
isolate (source animal id): 270 | 16 (≈ 19.8 µM)
isolate (source animal id): 271 | ≤ 8
isolate (source animal id): 272 | ≤ 8
isolate (source animal id): 273 | ≤ 8
isolate (source animal id): 274 | 16 (≈ 19.8 µM)
isolate (source animal id): 275 | ≤ 8
isolate (source animal id): 276 | ≤ 8
isolate (source animal id): 277 | 16 (≈ 19.8 µM)
isolate (source animal id): 278 | ≤ 8
isolate (source animal id): 279 | ≤ 8
isolate (source animal id): 280 | ≤ 8
isolate (source animal id): 281 | ≤ 8
isolate (source animal id): 282 | ≤ 8
isolate (source animal id): 283 | 16 (≈ 19.8 µM)
isolate (source animal id): 284 | ≤ 8
isolate (source animal id): 285 | ≤ 8
isolate (source animal id): 286 | 16 (≈ 19.8 µM)
isolate (source animal id): 287 | ≤ 8
isolate (source animal id): 288 | 16 (≈ 19.8 µM)
isolate (source animal id): 289 | ≤ 8
isolate (source animal id): 290 | ≤ 8
isolate (source animal id): 291 | ≤ 8
isolate (source animal id): 292 | ≤ 8
isolate (source animal id): 293 | ≤ 8
isolate (source animal id): 294 | ≤ 8
isolate (source animal id): 295 | ≤ 8
isolate (source animal id): 296 | ≤ 8
isolate (source animal id): 297 | ≤ 8
isolate (source animal id): 298 | ≤ 8
isolate (source animal id): 299 | ≤ 8
isolate (source animal id): 300 | ≤ 8
isolate (source animal id): 301 | ≤ 8
isolate (source animal id): 302 | ≤ 8
isolate (source animal id): 303 | ≤ 8
isolate (source animal id): 304 | ≤ 8
isolate (source animal id): 305 | ≤ 8
isolate (source animal id): 306 | ≤ 8
isolate (source animal id): 307 | ≤ 8
isolate (source animal id): 308 | ≤ 8
isolate (source animal id): 309 | ≤ 8
isolate (source animal id): 310 | ≤ 8
isolate (source animal id): 311 | ≤ 8
isolate (source animal id): 312 | ≤ 8
isolate (source animal id): 313 | ≤ 8
isolate (source animal id): 314 | ≤ 8
isolate (source animal id): 315 | 16 (≈ 19.8 µM)
isolate (source animal id): 316 | 16 (≈ 19.8 µM)
isolate (source animal id): 317 | ≤ 8
isolate (source animal id): 318 | ≤ 8
isolate (source animal id): 319 | ≤ 8
isolate (source animal id): 320 | ≤ 8
isolate (source animal id): 321 | 16 (≈ 19.8 µM)
isolate (source animal id): 322 | ≤ 8
isolate (source animal id): 323 | 16 (≈ 19.8 µM)
isolate (source animal id): 324 | ≤ 8
isolate (source animal id): 325 | 16 (≈ 19.8 µM)
isolate (source animal id): 326 | ≤ 8
isolate (source animal id): 327 | ≤ 8
isolate (source animal id): 328 | ≤ 8
isolate (source animal id): 329 | ≤ 8
isolate (source animal id): 330 | ≤ 8
isolate (source animal id): 331 | ≤ 8
isolate (source animal id): 332 | 16 (≈ 19.8 µM)
isolate (source animal id): 333 | ≤ 8
isolate (source animal id): 334 | ≤ 8
isolate (source animal id): 335 | ≤ 8
isolate (source animal id): 336 | 16 (≈ 19.8 µM)
isolate (source animal id): 337 | ≤ 8
isolate (source animal id): 338 | ≤ 8
isolate (source animal id): 339 | ≤ 8
isolate (source animal id): 340 | 32 (≈ 39.7 µM)
isolate (source animal id): 341 | ≤ 8
